## Primary screen of a compound library

From ChEMBL document CHEMBL3988442, “University of Dundee, Small-Polar-MMV Screening Library” (2021).

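Assay on Mycobacterium tuberculosis, filed only as a heat shock assay from Cornell; the read-out is not stated. The concentration is filed as 10 mM, unlikely as a test dose, so the dose is not known. The record gives no direction; compounds that gave an IC50 in retests scored well above the rest, so higher reads as stronger inhibition. Size under these conditions: about 69,000 compounds, about 930 of them at 50% or above in at least one test.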

Results are given as percent effect.
The controls that fix the scale are not given in the record; negative values are as filed.
This is an unselected part of the compounds tested.

compound,percent effect
O=C1CC2(CCCCN2C(=O)c2cccs2)CN1CC1CC1 (stereo not shown),0.1799%
COc1ccc(-c2cc(CN)nc3ccnn23)cc1.Cl,-1.199%
CC(Cc1ccco1)NC(=O)CSc1nnc[nH]1 (stereo not shown),11.54%
Cc1cc(C)cc(CNc2ccc(C(=O)NC(C)CO)cc2)c1 (stereo not shown),9.584%
COc1c(C2CCCN2C(=O)c2ccc(C#N)cc2)c(C)nn1C (stereo not shown),-3.574%
CN(C)C(=O)CS(=O)(=O)Cc1ccn(-c2cccc(F)c2)n1,-5.161%
CC(=O)NCCC(=O)Nc1cccc(N2CCN(CC3CC3)CC2)c1,-3.149%
COc1ccc(-c2cccc(CC3(C(=O)O)CCOCC3)c2)cc1,-12.03%
Cc1cc(C)cc(C2(C(=O)NCC(C)CN3CCCC3=O)CC2)c1 (stereo not shown),-25.38%
O=C(O)C(F)(F)F.c1cnc(N2CCC3(CCN(CC4CCOC4)CC3)C2)nc1 (stereo not shown),-22.46%
Cn1c(=O)ccn(CC(=O)Nc2cnccc2O)c1=O,-6.672%
Cc1nn(C)c(C)c1CN(C)CC1(O)CCCN(C)C1 (stereo not shown),-23.99%
CC(=O)N1CCC(n2ccc(-c3cnc(NCC(C)C)nc3)n2)CC1,0.369%
OC1(CN2CCCC2)COCCN(c2nccs2)C1 (stereo not shown),-26.53%
[H][C@@]12C[C@H](C(=O)NC3CCC3)[C@@]([H])(CN(c3ncc(CC)cn3)C1)O2,-2.401%
CCS(=O)(=O)N1CCc2c(cccc2NC(=O)NCCOC)C1,7.103%
COCC1CC2(CCN(S(=O)(=O)C3CC3)CC2)CN1c1ncccn1.O=C(O)C(F)(F)F (stereo not shown),-23.84%
[H][C@]12CC[C@]([H])(CN(C)C1)N(C(=O)c1ccc(OC)c(Cl)c1)C2,-36.71%
[H][C@]12CC[C@@]([H])(C1)N(Cc1cc(-c3ccccc3)no1)C2,7.341%
Cc1cnn(CCNCc2nccn2CC(F)(F)F)c1,27.4%
Cc1cc(C)n(CC2CN(CC(=O)N3CCNC3=O)CCO2)n1 (stereo not shown),-21.72%
CN(C)c1nccc(C2CCCN(C(=O)CO)C2)n1 (stereo not shown),-19.76%
COCC(=O)N1CCC2(CC1)CCn1c(-c3cccc(OC)c3)cnc12,-19.22%
CC(C)c1nn(C)c(N(C)C)c1CNCc1ccccc1CN(C)C,18.65%
Cn1ccnc1Sc1ccc(S(N)(=O)=O)cn1,5.076%
[H][C@]12CC[C@]([H])(CN(Cc3snnc3C)C1)N(Cc1ccccc1)C2,5.418%
Cc1ncc(-c2ccnc(N3CCN(C)CC3)n2)c(-c2cccnc2)n1,-9.017%
Cc1ccc(CN2CCc3nnc(CN4CCCC4=O)n3CC2)o1.O=C(O)C(F)(F)F,-4.831%
CC1CCN(S(=O)(=O)N2CCn3cccc3C2C)CC1 (stereo not shown),-8.545%
Cc1sc(CN)nc1-c1ccc(Cl)cc1.Cl,-33.57%
CCO[C@H]1CN(C)C[C@@H]1NC(=O)c1cc(C)nc2ccc(C)cc12,11.28%
COc1ccccc1CC1CCN(C(=O)CCN2CCOC2=O)CC1,-16.48%
CC(C)N(Cc1cnn(C)c1)C(=O)c1ccnc(N(C)C)c1,3.932%
Cc1cc(C(=O)Nc2cccn(Cc3ccccc3)c2=O)no1,1.695%
CN(Cc1cnn(C)c1)S(=O)(=O)N1CCc2ccccc2C1,-4.091%
CCSCc1ccnc(NC(=O)C2CCCO2)c1 (stereo not shown),7.008%
CC(C)N(C)C(=O)c1ccc(Cl)c(NC(=O)C2CCC2)c1,-5.773%
CC(NCCn1cccn1)c1cc(F)ccc1F (stereo not shown),-8.89%
Cn1cc(-c2ncc3c(c2C(=O)O)CCN(CC2CCOC2)C3)cn1 (stereo not shown),34.19%
O=C(C1CCOC1)N1CCC2(CCCNC2)CC1 (stereo not shown),-0.7797%
O=C(CSC1=NS(=O)(=O)c2cc(F)ccc2N1)Nc1cccc(Cl)c1,21.35%
NC(=O)N1CCCN(C2CCc3ccc(F)cc32)CC1 (stereo not shown),-0.8881%
COCC(=O)NC1CC2(CCN(Cc3ccco3)CC2)c2ccccc21.O=C(O)C(F)(F)F (stereo not shown),-0.75%
Cc1ccc(Oc2ncccc2C(=O)N(C)CC2OCCO2)c(C)c1,26.29%
CCC1CN(C(=O)c2cccc(O)c2)CCC(=O)N1Cc1ccccc1 (stereo not shown),3.275%
COC1CCCOC12CCN(C(=O)NCCc1cccs1)CC2 (stereo not shown),17.94%
CCc1ncc2c(n1)CN(Cc1nnc(Cc3ccccc3)o1)CC2,-23.66%
Clc1cc(Cl)cc(CN2CCC(NCc3cc[nH]n3)CC2)c1,12.72%
COc1c(CNC2CCc3ccccc32)c(C)nn1C (stereo not shown),14.19%
CCCn1ccc(C(=O)N2CCC(C)CC2)n1,11.2%
COc1ccc2[nH]c(CNc3cc(C4CCNCC4)nc(C)n3)cc2c1,101.5%
CCc1ccc(CNC(=O)CCc2nnc(-c3ccc(C)s3)o2)nc1,-0.807%
NC(=O)C1CCCN1Cc1ccccc1NC(=O)Cc1cccs1 (stereo not shown),-40.11%
CCOC(=O)c1n[nH]cc1-c1cncn1CCCn1nc(C)cc1C.Cl,8.544%
NC(=O)c1ccc(C2CCCN2C(=O)CCc2nc3ccccc3s2)s1 (stereo not shown),-35.04%
O=C(O)C(F)(F)F.[H][C@@]12CN(Cc3nccn3C)C[C@@]1([H])N(Cc1cccc(C)c1)C(=O)CO2,-7.614%
O=C(C1CCC1)N1CCC2(CC1)CNCCO2,6.085%
O=C(NC1CC1)c1cc(NC(=O)N2CCSCC2)ccc1Cl,-8.374%
O=c1c(NCCc2ccc(O)cc2)c(NCc2ccccn2)c1=O,-8.67%
O=C(CCC(F)(F)F)N1CCCC2(CCC(=O)N(CC3CC3)C2)C1 (stereo not shown),8.08%
CCC1CCCCCN1C(=O)c1cc(C#N)c(SC)[nH]c1=O (stereo not shown),6.935%

Some entries from above, unchanged:

compound	percent effect
CCO[C@H]1CN(C)C[C@@H]1NC(=O)c1cc(C)nc2ccc(C)cc12	11.28%
COCC1CC2(CCN(S(=O)(=O)C3CC3)CC2)CN1c1ncccn1.O=C(O)C(F)(F)F (stereo not shown)	-23.84%
Cc1ccc(Oc2ncccc2C(=O)N(C)CC2OCCO2)c(C)c1	26.29%
Cc1sc(CN)nc1-c1ccc(Cl)cc1.Cl	-33.57%
Clc1cc(Cl)cc(CN2CCC(NCc3cc[nH]n3)CC2)c1	12.72%
CCCn1ccc(C(=O)N2CCC(C)CC2)n1	11.2%
COc1c(C2CCCN2C(=O)c2ccc(C#N)cc2)c(C)nn1C (stereo not shown)	-3.574%